Data as given in PubChem BioAssay AID1259425 (University of Nebraska Medical Center, 2018)
The whole screen tested about 14,000 reagents; shown is an unselected part. A reagent listed more than once was tested more than once; the source does not tell the runs apart. Not stated in the record: the time to read-out.

- Purpose: 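Find knockdowns that reproduce the gene expression pattern seen when KSR1 is lost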 (primary screen)
- Cells: HCT116 human colon cancer cells
- Knock-down reagent: siRNA pool against human genes, 50 nM siRNA
- Detection: 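mRNA of six signature genes measured together by branched-DNA assay after 50 nM siRNA pool, blank removed, divided by geometric mean of two housekeeping genes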
- Reading the numbers: BNIP3L mRNA: higher = more BNIP3L transcript after knockdown; NDRG1 mRNA: higher = more NDRG1 transcript after knockdown; BNIP3 mRNA: higher = more BNIP3 transcript after knockdown; ALDOC mRNA: higher = more ALDOC transcript after knockdown; ACSL5 mRNA: higher = more ACSL5 transcript after knockdown

| gene | BNIP3L mRNA, set 1 | NDRG1 mRNA, set 1 | BNIP3 mRNA, set 1 | ALDOC mRNA, set 1 | ACSL5 mRNA, set 1 |
| --- | --- | --- | --- | --- | --- |
| KCNB2 | 0.0896 | 0.739 | 0.418 | 0.0151 | 0.14 |
| OXTR | 0.121 | 0.131 | 0.164 | 0.0469 | 0.106 |
| FTCD | 0.0918 | 0.124 | 0.187 | 0.0143 | 0.087 |
| LDHB | 0.114 | 0.313 | 0.317 | 0.019 | 0.288 |
| TAS2R1 | 0.112 | 0.364 | 0.356 | 0.026 | 0.163 |
| DYRK1A | 0.109 | 0.0898 | 0.258 | 0.00524 | 0.169 |
| CD3E | 0.164 | 0.238 | 0.298 | 0.0156 | 0.34 |
| CD3E | 0.249 | 0.212 | 0.299 | 0.0623 | 0.268 |
| PENK | 0.0813 | 0.0572 | 0.316 | 0.0546 | 0.113 |
| HINT1 | 0.118 | 0.146 | 0.3 | 0.0222 | 0.185 |
| PDCD4 | 0.08 | 0.135 | 0.253 | 0.025 | 0.0476 |
| ELAVL3 | 0.102 | 0.139 | 0.254 | 0.00789 | 0.118 |
| AHDC1 | 0.145 | 0.189 | 0.326 | 0.0194 | 0.187 |
| SEC31A | 0.161 | 0.144 | 0.254 | 0.0476 | 0.106 |
| ZNF492 | 0.178 | 0.066 | 0.375 | 0.0279 | 0.128 |
| ZC3H12A | 0.18 | 0.422 | 0.339 | 0.0255 | 0.338 |
| PAPSS1 | 0.0893 | 0.408 | 0.306 | 0.0167 | 0.169 |
| IRF8 | 0.0992 | 0.0237 | 0.237 | 0.00476 | 0.152 |
| FAM3C | 0.159 | 0.149 | 0.185 | 0.0579 | 0.0649 |
| GAB2 | 0.121 | 0.113 | 0.387 | 0.0168 | 0.224 |
| UTS2R | 0.0497 | 0.14 | 0.209 | 0.00751 | 0.147 |
| MED31 | 0.124 | 0.111 | 0.323 | 0.025 | 0.0831 |
| CYP51A1 | 0.229 | 0.156 | 0.721 | 0.0884 | 0.406 |
| PAK4 | 0.0841 | 0.148 | 0.339 | 0.0285 | 0.252 |
| RGS10 | 0.129 | 0.267 | 0.221 | 0.0288 | 0.229 |
| CDC42EP2 | 0.0908 | 0.208 | 0.249 | 0.0145 | 0.105 |
| ALG10 | 0.13 | 0.194 | 0.392 | 0.0616 | 0.129 |
| SNX25 | 0.209 | 0.222 | 0.585 | 0.0333 | 0.385 |
| B3GAT1 | 0.161 | 0.247 | 0.287 | 0.0111 | 0.266 |
| NAT14 | 0.132 | 0.142 | 0.158 | 0.0325 | 0.215 |
| PPIA | 0.104 | 0.242 | 0.358 | 0.0191 | 0.0754 |
| CLPTM1L | 0.174 | 0.237 | 0.292 | 0.0577 | 0.297 |
| TGFB3 | 0.179 | 0.311 | 0.386 | 0.0535 | 0.142 |

Reformatted: results already given.
CDC42EP2
- BNIP3L mRNA, set 1: 0.0908
- NDRG1 mRNA, set 1: 0.208
- BNIP3 mRNA, set 1: 0.249
- ALDOC mRNA, set 1: 0.0145
- ACSL5 mRNA, set 1: 0.105

ALG10
- BNIP3L mRNA, set 1: 0.13
- NDRG1 mRNA, set 1: 0.194
- BNIP3 mRNA, set 1: 0.392
- ALDOC mRNA, set 1: 0.0616
- ACSL5 mRNA, set 1: 0.129

SNX25
- BNIP3L mRNA, set 1: 0.209
- NDRG1 mRNA, set 1: 0.222
- BNIP3 mRNA, set 1: 0.585
- ALDOC mRNA, set 1: 0.0333
- ACSL5 mRNA, set 1: 0.385

B3GAT1
- BNIP3L mRNA, set 1: 0.161
- NDRG1 mRNA, set 1: 0.247
- BNIP3 mRNA, set 1: 0.287
- ALDOC mRNA, set 1: 0.0111
- ACSL5 mRNA, set 1: 0.266

NAT14
- BNIP3L mRNA, set 1: 0.132
- NDRG1 mRNA, set 1: 0.142
- BNIP3 mRNA, set 1: 0.158
- ALDOC mRNA, set 1: 0.0325
- ACSL5 mRNA, set 1: 0.215

PPIA
- BNIP3L mRNA, set 1: 0.104
- NDRG1 mRNA, set 1: 0.242
- BNIP3 mRNA, set 1: 0.358
- ALDOC mRNA, set 1: 0.0191
- ACSL5 mRNA, set 1: 0.0754

CLPTM1L
- BNIP3L mRNA, set 1: 0.174
- NDRG1 mRNA, set 1: 0.237
- BNIP3 mRNA, set 1: 0.292
- ALDOC mRNA, set 1: 0.0577
- ACSL5 mRNA, set 1: 0.297

TGFB3
- BNIP3L mRNA, set 1: 0.179
- NDRG1 mRNA, set 1: 0.311
- BNIP3 mRNA, set 1: 0.386
- ALDOC mRNA, set 1: 0.0535
- ACSL5 mRNA, set 1: 0.142

Next results follow:
| gene | BNIP3L mRNA, set 1 | NDRG1 mRNA, set 1 | BNIP3 mRNA, set 1 | ALDOC mRNA, set 1 | ACSL5 mRNA, set 1 |
| --- | --- | --- | --- | --- | --- |
| REPIN1 | 0.0775 | 0.167 | 0.33 | 0.0311 | 0.141 |
| ZNF227 | 0.143 | 0.177 | 0.297 | 0.0241 | 0.16 |
| CD180 | 0.0683 | 0.144 | 0.261 | 0.0348 | 0.149 |
| MIR503HG | 0.112 | 0.497 | 0.276 | 0.0254 | 0.211 |
| UGT1A6 | 0.0949 | 0.139 | 0.276 | 0.0286 | 0.156 |
| AP5M1 | 0.0642 | 0.209 | 0.367 | 0.0185 | 0.145 |
| GTPBP4 | 0.196 | 0.307 | 0.704 | 0.0235 | 0.281 |
| RBFOX1 | 0.192 | 0.1 | 0.256 | 0.0668 | 0.149 |
| SFSWAP | 0.128 | 0.108 | 0.255 | 0.0108 | 0.166 |
| KLHL26 | 0.176 | 0.125 | 0.449 | 0.0428 | 0.147 |
| TAS2R60 | 0.209 | 0.581 | 0.779 | 0.0332 | 0.207 |
| SLC71A1 | 0.132 | 0.0947 | 0.434 | 0.053 | 0.174 |
| KCNAB2 | 0.0795 | 0.376 | 0.563 | 0.0152 | 0.0881 |
| CHST4 | 0.211 | 0.256 | 0.296 | 0.0723 | 0.213 |
| CRX | 0.0735 | 0.62 | 0.154 | 0.00141 | 0.236 |
| SIGLEC8 | 0.0608 | 0.762 | 0.327 | 0.0369 | 0.158 |
| TMCC1 | 0.0578 | 0.148 | 0.251 | 0.0168 | 0.151 |
